# Test results published in article PMC3916239, “Distinct DNA Binding Sites Contribute to the TCF Transcriptional Switch in C. elegans and Drosophila”.
# The exact form of at least one protein or probe is not confirmed. Weaker means in comparison with the reference protein, sequence or condition of that experiment. Where a protein sequence is shown, tags need not be part of it. At least one verdict rests on a figure or table, not on a statement of the authors.
# Target: T1, POP-1 (Caenorhabditis elegans) (UniProt Q10666)
# T1 sequence (looked up, limits assumed): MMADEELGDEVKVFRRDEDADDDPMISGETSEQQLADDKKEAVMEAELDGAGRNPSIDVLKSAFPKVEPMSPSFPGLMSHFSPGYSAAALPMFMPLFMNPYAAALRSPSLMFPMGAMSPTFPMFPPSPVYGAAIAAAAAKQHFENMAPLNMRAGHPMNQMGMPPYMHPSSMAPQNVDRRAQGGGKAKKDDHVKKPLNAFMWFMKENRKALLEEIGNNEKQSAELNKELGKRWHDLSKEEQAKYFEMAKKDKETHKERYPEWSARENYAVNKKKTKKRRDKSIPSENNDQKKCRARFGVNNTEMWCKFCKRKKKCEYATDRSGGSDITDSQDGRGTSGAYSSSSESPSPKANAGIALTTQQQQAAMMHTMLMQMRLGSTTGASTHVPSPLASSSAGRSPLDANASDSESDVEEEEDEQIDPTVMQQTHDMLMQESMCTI
# Experiment: EMSA
# Details: 10 mM Tris-HCl pH 7.5, 50 mM KCl, 1 mM DTT, 5 mM MgCl2, 0.05% NP-40, 50 ug/ml poly(dI-dC), glycerol, 20 ul, 5 min on ice then 25 min room temperature, 6% native gel, recombinant protein, protein details: 6xHis, label: biotin
sequence,measurement,setting,value
TACGAGAAGCGGCGATTCAAGAGTTTCAAATAACTTCTCCACCGCCTTTTGAAGTTGCCGAAAATAGTTAAA (double strand) [ceh-22b control probe (72 nt as printed)],binding result,positive control,binds
ACACGTTCTGGCCACATTTTCTTTGATTTTTTCTGATTTCGCCGACTTTTTTC (double strand) [K08D12.3 short probe (no Helper1)],binding result,,binds more weakly
